Laboratory results from PMC5342496.
Results are given in words; binding and its absence hold for the method and conditions named. In cells and extracts the contact can be indirect. Some entries that bind do so weakly or less than the wild type.

Protein sequences, listed by entry. Tags and fused reporters are not part of them.
UniProt P17480: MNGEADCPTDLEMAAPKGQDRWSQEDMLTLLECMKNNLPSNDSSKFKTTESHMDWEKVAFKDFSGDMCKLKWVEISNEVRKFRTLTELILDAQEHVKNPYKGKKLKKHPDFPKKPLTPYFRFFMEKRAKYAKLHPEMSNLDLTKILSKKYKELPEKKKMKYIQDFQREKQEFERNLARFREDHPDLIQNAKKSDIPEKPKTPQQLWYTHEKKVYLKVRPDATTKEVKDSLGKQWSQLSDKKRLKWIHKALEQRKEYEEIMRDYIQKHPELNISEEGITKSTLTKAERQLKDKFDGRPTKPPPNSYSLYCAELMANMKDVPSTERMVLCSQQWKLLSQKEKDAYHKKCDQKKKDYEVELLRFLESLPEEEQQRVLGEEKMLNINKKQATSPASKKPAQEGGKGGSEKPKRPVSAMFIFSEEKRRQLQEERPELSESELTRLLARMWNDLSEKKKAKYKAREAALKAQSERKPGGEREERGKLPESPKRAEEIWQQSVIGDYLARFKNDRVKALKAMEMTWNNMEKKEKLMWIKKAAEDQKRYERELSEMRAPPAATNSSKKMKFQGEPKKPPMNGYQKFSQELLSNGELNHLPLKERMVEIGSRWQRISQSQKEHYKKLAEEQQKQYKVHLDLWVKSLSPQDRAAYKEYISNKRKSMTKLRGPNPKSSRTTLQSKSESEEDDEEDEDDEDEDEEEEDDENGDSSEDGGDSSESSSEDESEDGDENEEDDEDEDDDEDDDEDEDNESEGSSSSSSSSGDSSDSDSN
UniProt Q05195: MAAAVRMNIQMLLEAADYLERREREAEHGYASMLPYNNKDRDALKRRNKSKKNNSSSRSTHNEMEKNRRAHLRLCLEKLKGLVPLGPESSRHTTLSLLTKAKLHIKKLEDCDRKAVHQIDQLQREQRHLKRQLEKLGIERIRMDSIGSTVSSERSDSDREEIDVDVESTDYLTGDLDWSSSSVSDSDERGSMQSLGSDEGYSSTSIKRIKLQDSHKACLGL

What was measured:
UBF-Flag = UBF-Flag (UniProt P17480); experiment: co-IP; cells transfected with UBF-Flag expression vector; data not shown
[1] = biological target: UBF (Upstream Binding Factor) (human (endogenous in HeLa)) (UniProt P17480); experiment: co-IP; lysates of HeLa cells serum-deprived for 48 h; immunoprecipitation with anti-UBF antibodies, immunoblot against MXD1 and UBF
[2] = biological target: UBF (Upstream Binding Factor) (human (endogenous in HeLa)) (UniProt P17480); experiment: proximity ligation; in situ PLA (Duolink in situ Red Starter kit Mouse/Rabbit) in growing HeLa cells with pairs of primary antibodies; signals per nucleus quantified with ImageJ

binding (UBF-Flag): binds | binding [1]: binds | binding [2]: binds
Substance: MXD1 (from UniProt Q05195 1-221)
